Values joined by “and” are separate entries in the source; they are usually repeats but may differ in a detail not shown here. Equal values may be shown once. Read-outs that look alike come from different tables or passages of the source.
What was measured:
[1] = test system: mice; conditions: mouse, in vivo, iv
[2] = test system: mice
[3] = mice, 3 μmol/kg intravenous dose
[4] = in vivo; conditions: male, ICR, mouse, brain and plasma, iv, 3 umol/kg
[5] = 5% mulgofen s.c. (−20 min), then morphine 1.51 μmol/kg + 10% tween 80 i.v.
[6] = 5% mulgofen s.c. (−20 min), then morphine 1.51 μmol/kg + Compound 1a 1.0 μmol/kg i.v.
[7] = SR141716A 3.0 μmol/kg s.c. (−20 min), then morphine 1.51 μmol/kg + Compound 1a 1.0 μmol/kg i.v.

Row | Compound | Tail flick latency (s) + s.e.m. at Tmax [1] | % of MPE at Tmax [2, 5] | Tail flick latency (s) + s.e.m. at Tmax [2, 5] | Tail flick latency (s) + s.e.m. at Tmax ([2]; 5% mulgofen s.c. (−20 min), then morphine 1.51 μmol/kg + 10% tween 80 i.v., listed as Morphine) | Tmax post-injection [1] | maximum measured concentration in brain homogenate [3] | maximum measured concentration in plasma [3] | % of MPE at Tmax [2, 6] | Tail flick latency (s) + s.e.m. at Tmax [2, 6] | % of MPE at Tmax [2, 7] | Tail flick latency (s) + s.e.m. at Tmax [2, 7] | Kp [4]
1 | CN1CC[C@]23c4c5ccc(O)c4O[C@H]2[C@@H](O)C=C[C@H]3[C@H]1C5 [morphine, reference compound] | 7.75 ± 0.81 s and 7.09 ± 0.17 s | 38.3% | 6.78 ± 0.27 s | 6.78 ± 0.27 s | – | – | – | – | – | – | – | –
2 | CCOC(=O)c1c(C)cc2nc(COC(=O)NCCO)n(-c3ccccc3S(=O)(=O)NC)c(=O)c2c1C [Compound 1a, 2-(2-Hydroxy-ethylcarbamoyloxymethyl)-5,7-dimethyl-3-(2-methylsulfamoylphenyl)-4-oxo-3,4-dihydro-quinazoline-6-carboxylic acid ethyl ester] | – | – | – | – | 40 min and 20 min | 43 ng/g | 2515 ng/mL | 92.1% | 11.33 ± 0.36 s | 38.0% | 6.75 ± 0.77 s | 0.02
3 | Cl.O=C(NCCO)[C@H]1CCCN(Cc2nc(-c3cn(CC4CCS(=O)(=O)CC4)c4c(Cl)cccc34)ns2)C1 [Compound 2, (S)-7-Chloro-3-[(5-{[3-N-(2-hydroxyethyl)carboxamido]piperidin-1-yl}methyl)([1,2,4]-thiadiazol-3-yl)]-1-(1,1-dioxo-hexahydrothiopyran-4-yl)methyl-1H-indole, hydrochloride salt] | – | – | – | – | 40 min | 18 ng/g | 528 ng/mL | – | – | – | – | 0.03
